# Target: T1, human somatic angiotensin I-converting enzyme, C-domain (cACE) (Homo sapiens, UniProt P12821, N1191Q/N695Q/N760Q/N942Q)
# By UniProt entry, the sequences of proteins in these tests, tags left out. Residues count along the entry.
# UniProt P12821, 642-1238 N695Q/N760Q/N942Q/N1191Q: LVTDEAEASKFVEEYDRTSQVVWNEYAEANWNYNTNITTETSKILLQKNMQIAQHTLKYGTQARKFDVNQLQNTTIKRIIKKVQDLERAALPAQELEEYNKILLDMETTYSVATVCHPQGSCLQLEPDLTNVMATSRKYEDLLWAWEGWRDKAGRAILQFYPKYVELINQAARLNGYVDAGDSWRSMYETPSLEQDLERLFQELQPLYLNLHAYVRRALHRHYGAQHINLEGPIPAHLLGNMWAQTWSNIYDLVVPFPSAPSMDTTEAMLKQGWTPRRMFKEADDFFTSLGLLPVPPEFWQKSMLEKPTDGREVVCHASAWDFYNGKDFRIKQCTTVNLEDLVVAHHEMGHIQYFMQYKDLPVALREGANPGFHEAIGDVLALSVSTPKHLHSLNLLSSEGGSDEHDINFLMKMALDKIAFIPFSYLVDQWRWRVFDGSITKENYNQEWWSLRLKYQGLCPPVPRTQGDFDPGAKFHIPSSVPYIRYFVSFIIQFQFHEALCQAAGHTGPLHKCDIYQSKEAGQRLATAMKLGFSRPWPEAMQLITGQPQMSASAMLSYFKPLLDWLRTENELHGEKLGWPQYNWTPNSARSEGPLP
# T1 construct: gene ACE
# Assay: biochemical
smiles,measurement,value
"O=C(O)c1cn(C2CC2)c2cc(N3CCNCC3)c(F)cc2c1=O [Cip, Ciprofloxacin]",Ki,33.8 µM
